Assay results reported in PubChem BioAssay AID493014 (National Center for Advancing Translational Sciences (NCATS), 2011).
The campaign covered roughly 340,000 compounds. About 170 (0.05%) were called active. This list was built around the results that the source calls inconclusive (neither active nor inactive); the mix of calls is not that of the screen. Calls follow the shape of the dose curve; as a rule, active = well fitted inhibition curve with a large enough effect in the signal ratio, with a control signal flat (not every such curve was filed as active); inconclusive = small, poorly fitted or top-dose-only effect, or effect the other way, or a change in a side signal; inactive = flat fitted curve, though single readings scatter; the % refers to the signal ratio. Potencies of inconclusive entries are doubtful fits and often do not repeat.

Test: qHTS Assay to Find Inhibitors of Chronic Active B-Cell Receptor Signaling;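 as to activity change, negative = inhibition: plate controls were basal doxycycline-induced cells for no effect and cells given 10 µM MG132 for full effect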
Settings: ABC-DLBCL IkBa-CBG/CBR reporter, luminescence ratio (green luciferase fused to IkBa over red control in TMD8 lymphoma cells), 4 h; activity change, negative = inhibition: at 46.1 µM (top of the series)
Method in brief: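 Cell line TMD8 (human ABC DLBCL), stably expressing tet-inducible CBG68-IkBa fusion and CBR; IMDM/0.5% FBS; cpd up to 46 uM; dox induction, 4 h, 37C/5% CO2; dual luminescence; green/red ratio; MG132 control.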
Potency is read from the fitted curve at half-maximal effect.

| Structure (SMILES) | activity change, negative = inhibition | Potency |
| --- | --- | --- |
| CC(=O)Nc1ccc2nc(NC(=O)c3ccc([N+](=O)[O-])o3)sc2c1 | inconclusive: -0.456% |  |
| CCOP1(=S)Oc2cc3c(cc2C(C(=O)OC)(C(F)(F)F)O1)OCO3 (centres undefined) | inconclusive: -15.6% |  |
| COc1ccc(NS(=O)(=O)c2cc(N=Nc3c(O)[nH]c(=O)[nH]c3=O)ccc2Cl)cc1 | inconclusive: -0.404% |  |
| COC(=O)C(O)(c1ccc(N(C)C(=O)OC(C)C)cc1)C(F)(F)F (centres undefined) |  | inconclusive: 2.91 µM [falling, partial curve, poor fit] |
| C[C@]12CC[C@H](O)CC1=CCC1C2CC[C@@]2(C)C1C[C@@H](O)[C@@H]2O (some centres undefined) | inactive: 1.13% |  |
| COc1cc2c(cc1OC)-c1c(OC)c(OC)cc3c1C(C2)N(C)CC3 (centres undefined) | inactive: -2.42% |  |
| CC(=NCCCn1ccnc1)c1c(O)n(C2CCCCC2)c(=O)[nH]c1=O | inconclusive: 13.3% |  |
| CCOC(=O)c1c(N)n(Cc2ccc(OC)cc2)c2nc3ccccc3nc12 | inconclusive: -0.16% |  |
| C=CCn1c(O)c(C(CC)=NCCCO)c(=O)[nH]c1=O | inactive: 7.15% |  |
| CCN(CC)C(=O)c1ccc(NC(=O)CNC(C)c2cccc3ccccc23)cc1 (centres undefined) | inconclusive: -18.5% |  |
| Cc1cc(C)nc(/N=C(\N)c2c(O)[nH]c(=O)[nH]c2=O)n1 | inactive: -1.45% |  |
| O=C1NC(=O)C(CCc2ccncc2)(CCc2ccccn2)C(=O)N1c1ccc(Br)cc1 (centres undefined) | inactive: 4.5% |  |
| Nc1ccccc1C(=O)OCCc1ccccc1 |  | inconclusive: 16.4 µM [falling, partial curve] |
| Clc1ccc2c(c1)C(c1ccccc1Cl)=NCc1nnc(N3CCN(CCOc4ccccc4)CC3)n1-2 | inconclusive: -12.9% |  |
| Cn1cc(NC(=O)CCl)cn1 |  | inconclusive: 35.5 µM [falling, single point] |
| CCCCCn1c(=O)c(C(=O)NC(C)c2ccccc2)c(O)c2ccccc21 (centres undefined) | inconclusive: 9.47% |  |
| COc1ccc(CC(C)Nc2cccc(F)c2)cc1 (centres undefined) | inconclusive: 6.5% |  |
| COc1c(C)cc(C(=O)C2CCCN(Cc3cnc(C)s3)C2)cc1C (centres undefined) | inconclusive: 4.86% |  |
| CNC(=O)N(C)c1nnc(C(C)(C)C)s1 | inconclusive: 6.82% |  |
| O=c1[nH]c(=S)n(Cc2ccco2)c(O)c1C=NCc1cccs1 | inactive: -2.33% |  |
| Cc1ccc(CN2C(=O)c3ccccc3Sc3ccc(C(=O)N4CCC5(CC4)OCCO5)cc32)cc1 | inactive: -0.437% |  |
| O=C(O)C1C2CCC(O2)C1C(=O)Nc1ccc(Cl)cc1 (centres undefined) | inconclusive: 6.33% |  |
| CS(=O)(=O)c1ccc(C(=O)N2CCC(C(=O)O)(c3ccccc3)CC2)cc1 | inactive: 0.827% |  |
| NC(=S)c1cn(C2OC(CO)C(O)C2O)c2ncnc(N)c12 (centres undefined) |  | inconclusive: 0.501 µM [rising, full curve] |
| CC(C)(C)C(=O)c1cn(CC(=O)NCc2ccco2)c2ccccc12 | inactive: -0.823% |  |
| CN1CCC2(O)OCCCC2C1 (centres undefined) | inconclusive: -23.4% |  |
| Cc1ccc(-c2cc(-c3ccccc3)cc(-c3ccccc3)[n+]2-c2ccccc2)cc1 | inconclusive: 19% |  |

| Structure (SMILES) | activity change, negative = inhibition | Potency |
| --- | --- | --- |
| Cc1nc2cc(C(F)(F)F)ccc2n1C1CCN(Cc2nnnn2Cc2cccs2)CC1 | inactive: -18.1% |  |
| S=C1CN=C(c2ccccc2Cl)c2cc(Cl)ccc2N1 | inactive: 1.16% |  |
| C[C@]12CCC3[C@@H](CCC4=CC(=O)CC[C@@]43C=O)C1CCC2=O (some centres undefined) | inconclusive: -0.847% |  |
| CC(=O)c1c(O)n(C2CCCCCC2)c(=O)[nH]c1=O | inconclusive: 13% |  |
| COC1=C(C)C(=O)O[C@]12C(=O)C(C)=C1CCCCN3[C@H]([C@@H]4C[C@H](C)C(=O)O4)CC[C@]132 |  | inconclusive: 16.4 µM [falling, single point] |
| CN1[C@@H]2CC[C@H]1CC(OC(=O)C1C=Nc3ccccc31)C2 (some centres undefined) |  | inconclusive: 7.08 µM [falling, full curve, poor fit] |
| O=C1Nc2cc(C(=O)N3CCC4(CC3)OCCO4)ccc2NC1CSCc1cccc(F)c1 (centres undefined) |  | inconclusive: 35.5 µM [falling, single point] |
| FC(F)(F)C1=NC(C(F)(F)F)=NP(N2CCOCC2)(N2CCOCC2)=N1 | inconclusive: 3.94% |  |
| COC(=O)C1=C(c2ccc(F)cc2OCc2ccccc2)C[C@@H]2CC[C@H]1N2C(=O)NCCc1ccc(F)cc1 | inconclusive: -7.08% |  |
| NC(=O)c1cn(C2CCCCC2)c2ccccc2c1=O | inactive: -1.76% |  |
| Cc1ccc2c(c1)=C/C(=C\c1c(O)[nH]c(=O)[nH]c1=O)C(=O)N=2 | inconclusive: -9.41% |  |
| COc1ccccc1N1CCN(Cc2c(F)cccc2F)CC1 | inconclusive: 12.1% |  |
| O=c1[nH]c(=O)n(-c2ccccc2Cl)c(O)c1C=NCCN1CCCCC1 | inconclusive: 5.61% |  |
| O=C1NCN(c2ccccc2)C12CCN(CCCC(c1ccc(F)cc1)c1ccc(F)cc1)CC2 | inconclusive: -12.7% |  |
| CC(NCc1cccc(Cl)c1Cl)C(O)c1ccccc1 (centres undefined) | inconclusive: 7.04% |  |
| C=Cn1ccnc1P(=S)(c1ccn(C)c1)c1nccn1C=C | inactive: 0.638% |  |
| COc1ccc(/C=N/NC(=O)c2cccnc2)cc1COc1ccc([N+](=O)[O-])cc1 | inconclusive: -9.12% |  |
| NC(=O)CN1CC(c2ccccc2)CC1=O (centres undefined) | inconclusive: -0.36% |  |
| CCc1nc2ccccc2c(=O)n1-c1ccccc1[N+](=O)[O-] | inconclusive: -0.474% |  |
| CCOP(=S)(OCC)c1ccc(N(C)C)cc1 | inactive: -0.0861% |  |
| CCCCN(CC)C(=O)CSc1nc2n[nH]c(C)c2c(=N)n1-c1cccc(Cl)c1 | inconclusive: 12.8% |  |
| CN1C(=O)/C(=C\c2ccc(N3CCCCC3)o2)C(=O)NC1=S | inactive: 1.26% |  |
| COc1cc(CN2C(=O)NC(=O)C3(Cc4cc(C)ccc4N(C)C3)C2=O)cc(OC)c1 (centres undefined) | inconclusive: -2.12% |  |
| O=C(N=Nc1c(O)[nH]c(=O)[nH]c1=O)C1COc2ccccc2O1 (centres undefined) | inactive: 6.67% |  |
| CCOC(=O)[C@@H]1[C@H]2COc3ccc(Br)cc3[C@@H]2N2C(=O)N(c3cccc(C)c3)C(=O)[C@]12C | inconclusive: 9.57% |  |
| CN(C)CCc1nc2ccccc2c(=O)n1-c1ccccc1 |  | inconclusive: 29.1 µM [falling, single point] |
| O=c1[nH]c(=S)n(-c2cccc(Cl)c2)c(O)c1/C=N/N1CCOCC1 | inconclusive: 8.08% |  |

Reformatted: entries from further up
Structure (SMILES) | activity change, negative = inhibition | Potency
Cc1ccc2c(c1)=C/C(=C\c1c(O)[nH]c(=O)[nH]c1=O)C(=O)N=2 | inconclusive: -9.41% | 
NC(=O)CN1CC(c2ccccc2)CC1=O (centres undefined) | inconclusive: -0.36% | 

Some of these compounds in order of SMILES length, falling.

| Structure (SMILES) | activity change, negative = inhibition | Potency |
| --- | --- | --- |
| Cc1nc2cc(C(F)(F)F)ccc2n1C1CCN(Cc2nnnn2Cc2cccs2)CC1 | inactive: -18.1% |  |
| O=c1[nH]c(=S)n(-c2cccc(Cl)c2)c(O)c1/C=N/N1CCOCC1 | inconclusive: 8.08% |  |
| O=C(O)C1C2CCC(O2)C1C(=O)Nc1ccc(Cl)cc1 (centres undefined) | inconclusive: 6.33% |  |
